Data reported in publication PMC12664280, “Integrative transcriptomics and peptidomics approach reveals unexpectedly diverse endogenous secretory peptides in Odorrana grahami frog skin” (BMC Biology, 2025).
Converted amounts (≈) assume the structure as drawn.

Test system: Candida albicans CCMCC(F) 98001
Experiment: microbe, parasite or virus in culture
Format: cell-based
Conditions: broth microdilution, read-out: minimum inhibitory concentration (MIC), Candida albicans
Description: Ranatuerin-2P-OG1 synthesis was performed by Royobiotech Co., Ltd. (Shanghai, China) using solid-phase peptide synthesis. The crude peptide was purified by RP-HPLC and its purity was confirmed to exceed 90% via ESI-MS analysis. Antimicrobial assays with various microbial strains were conducted, including gram-positive Staphylococcus aureus ATCC 29213 and its methicillin-resistant variant (MRSA) CIB 8546, Enterococcus faecalis ATCC 29212, gram-negative Pseudomonas aeruginosa ATCC 27853 and Escherichia coli ATCC 25922, and fungal Candida albicans CCMCC(F) 98001. Bacterial cultures were maintained in cation-adjusted Mueller-Hinton broth (MHB) at 35°C for 16-20 h, whereas fungal cultures were grown in Sabouraud dextrose broth (SDB) at 28°C for 48 h.

MIC: 2 µg/mL (≈ 2.16 µM)
Compound: C[C@@H]1[C@H](O)[C@@H](C)/C=C/C=C/C=C/C=C/C=C/C=C/C=C/[C@H](O[C@@H]2O[C@H](C)[C@@H](O)[C@H](N)[C@@H]2O)C[C@@H]2O[C@](O)(C[C@@H](O)C[C@@H](O)[C@H](O)CC[C@@H](O)C[C@@H](O)CC(=O)O[C@H]1C)C[C@H](O)[C@H]2C(=O)O [Amphotericin B, reference compound]
